Laboratory results: patent US20240209062A1 (INVETX, published 2024)
Changes are numbered by the printed parent chain. Names may count otherwise. No constants are given. Whether binding was seen depends on the method and setting. Some binding calls cover weakened binding; strength is not graded here. Sequences can lack the tags named with a protein.

Sequences of proteins named here, by UniProt entry; tags and fusion partners are left off. A change or cut given only in a name is not applied to a line headed by its entry.
UniProt Q5MGS7: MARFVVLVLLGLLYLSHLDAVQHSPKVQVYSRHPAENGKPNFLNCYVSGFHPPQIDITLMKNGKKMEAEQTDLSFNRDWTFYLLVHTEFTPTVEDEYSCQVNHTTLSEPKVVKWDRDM

B1: IgG with feline IgG1a Fc variant S428L, R392E (antibody)
heavy: DVQLVESGGDLVKPGGSLRLTCVASGLSLTSDSMSWVRQAPGKGLQWVSTLWSNRGTYYTDSVKGRFTISKDNAENTLYLQMNNLKTEDTATYYCASIYYYEADYLHWYFDFWGQGALVTVSSASTTAPSVFPLAPSCGTTSGATVALACLVLGYFPEPVTVSWNSGALTSGVHTFPAVLQASGLYSLSSMVTVPSSRWLSDTFTCNVAHPPSNTKVDKTVRKTDHPPGPKPCDCPKCPPPEAAGGPSIFIFPPKPKDTLSISRTPEVTCLVVDLGPDDSDVQITWFVDNTQVYTAKTSPREEQFNSTYRVVSVLPILHQDWLKGKEFKCKVNSKSLPSPIERTISKAKGQPHEPQVYVLPPAQEELSRNKVSVTCLIKSFHPPDIAVEWEITGQPEPENNYETTPPQLDSDGTYFVYSKLSVDRSHWQRGNTYTCSVLHEALHSHHTQKSLTQSPG
light: EIQMTQSPTSLSASVGDRVTITCRASEGIANNLSWYQQTPGKAPKLLIYATSNLHSGVPSRFSGSGSGTDFTLTISSLQPEDFATYYCQQGFKWPLTFGGGTKLEITRSDAQPSVFLFQPSLDELHTGSASIVCILNDFYPKEVNVKWKVDGVVQNKGIQESTTEQNSKDSTYSLSSTLTMSSTEYQSHEKFSCEVTHKSLASTLVKSFNRSECQRE
notes: IgG1a constant domain with MALA mutations (M234A, L244A as printed); variable domains from WO 2023/97275
B2: IgG with feline IgG1a Fc variant S428L, T286D (antibody)
heavy: B1 heavy with T295D, E403R
light: B1 light
notes: as for B1
B3: IgG with feline IgG1a Fc variant S428M (antibody)
heavy: B1 heavy with E403R, L439M
light: B1 light
notes: as for B1
B4: IgG with feline IgG1a Fc variant S428M, I377L (antibody)
heavy: B1 heavy with I386L, E403R, L439M
light: B1 light
notes: Printed '1377L' read as I377L; IgG1a constant domain with MALA mutations (M234A, L244A as printed); variable domains from WO 2023/97275; also called S428M, 1377L
B5: IgG with feline IgG1a Fc variant S428M, I377Y (antibody)
heavy: B1 heavy with I386Y, E403R, L439M
light: B1 light
notes: Printed '1377Y' read as I377Y; IgG1a constant domain with MALA mutations (M234A, L244A as printed); variable domains from WO 2023/97275; also called S428M, 1377Y
B6: IgG with feline IgG1a Fc variant S428M, L309D (antibody)
heavy: B1 heavy with L318D, E403R, L439M
light: B1 light
notes: as for B1
B7: IgG with feline IgG1a Fc variant S428M, L309E (antibody)
heavy: B1 heavy with L318E, E403R, L439M
light: B1 light
notes: as for B1
B8: IgG with feline IgG1a Fc variant S428M, L309V (antibody)
heavy: B1 heavy with L318V, E403R, L439M
light: B1 light
notes: as for B1
B9: IgG with feline IgG1a Fc variant S428M, Q311V (antibody)
heavy: B1 heavy with Q320V, E403R, L439M
light: B1 light
notes: as for B1
B10: IgG with feline IgG1a Fc variant S428M, R301L (antibody)
heavy: B1 heavy with R310L, E403R, L439M
light: B1 light
notes: as for B1
B11: IgG with feline IgG1a Fc variant S428M, R301V (antibody)
heavy: B1 heavy with R310V, E403R, L439M
light: B1 light
notes: as for B1
B12: IgG with feline IgG1a Fc variant S428M, R301Y (antibody)
heavy: B1 heavy with R310Y, E403R, L439M
light: B1 light
notes: as for B1
B13: IgG with feline IgG1a Fc variant S428M, R392D (antibody)
heavy: B1 heavy with E403D, L439M
light: B1 light
notes: as for B1
B14: IgG with feline IgG1a Fc variant S428M, R392E (antibody)
heavy: B1 heavy with L439M
light: B1 light
notes: as for B1
B15: IgG with feline IgG1a Fc variant S428M, T286D (antibody)
heavy: B1 heavy with T295D, E403R, L439M
light: B1 light
notes: as for B1
B16: IgG with feline IgG1a Fc variant S428M, T286E (antibody)
heavy: B1 heavy with T295E, E403R, L439M
light: B1 light
notes: as for B1

Biological target: feline FcRn (soluble portion of large subunit p51 isoform X1 with C-terminal 6xHis-tag, co-expressed with feline beta2-microglobulin with C-terminal STREP-TAG II) (feline) (UniProt Q5MGS7)
Assay: SPR, pH 5.9

binding, binds:
B1
B2
B3
B4
B5
B6
B7
B8
B9
B10
B11
B12
B13
B14
B15
B16
